Data as given in PubChem BioAssay AID504784 (Drosophila RNAi Screening Center, 2011)

Aim: 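Genome-wide knock-down for genes giving too much or too little stored lipid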 (primary screen)
Cells: Drosophila Kc167 embryonic cells
Reagents: long dsRNA against Drosophila genes, about 250 ng dsRNA per well
Duration: 4 days
Treatment: cells fed 400 µM oleic acid bound to BSA
Measurement: 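Microscope images give a droplet-to-nucleus area ratio, taken as log and converted to a screen-wide B-score; higher values mean greater lipid storage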
Direction: droplet/nuclear area B-score: higher = more stored lipid (overstorage)
The screen tested about 17,000 reagents; below is a random part of those that have a named target and a result. 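Each column is one replicate's B-score; the combined score over replicates was not deposited, so single values may mislead.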 A plus sign joins genes that one reagent is predicted to hit.

| Gene | amplicon | droplet/nuclear area B-score, replicate 1 | droplet/nuclear area B-score, replicate 2 | droplet/nuclear area B-score, replicate 3 |
| --- | --- | --- | --- | --- |
| CG31268 | DRSC13203 | 0.00469 | 0.361 | – |
| CG10979 | DRSC12153 | 0.183 | -0.946 | – |
| CG12123 | DRSC17818 | -1.4 | 0.422 | 0.94 |
| CG32643 | DRSC18962 | -0.239 | -0.812 | – |
| Prosbeta5R1 (Proteasome beta5 subunit-related 1) | DRSC04581 | 1.18 | 1.28 | – |
| mRpS30 (mitochondrial ribosomal protein S30) | DRSC20107 | 2.56 | 2.01 | 0.575 |
| CG43901 | DRSC19397 | -0.454 | -0.492 | -2.03 |
| CG43901 | DRSC19652 | 0.0597 | -0.861 | 3.63 |
| Flo2 (Flotillin 2) | DRSC19062 | 1.12 | -0.0898 | – |
| Flo2 (Flotillin 2) | DRSC20244 | 1.33 | 2.26 | – |
| cas (castor) | DRSC12373 | 1.67 | -1.71 | – |
| mRpL45 (mitochondrial ribosomal protein L45) | DRSC16146 | 2.37 | 2.97 | – |
| CG14736 | DRSC14956 | -0.659 | -0.0254 | – |
| CG5381 | DRSC02852 | 0.00553 | 0.218 | – |
| CG12299 | DRSC02158 | -3.19 | – | – |
| CG8675 | DRSC20117 | 0.183 | 0.0994 | – |
| CG15909 | DRSC04977 | 1.03 | 1.81 | – |
| Nt5a (5' nucleotidase A) | DRSC08561 | 6.8 | 0.491 | – |
| Snx1 (Sorting nexin 1) | DRSC00531 | -1.65 | -2.3 | – |
| Tsp3A (Tetraspanin 3A) | DRSC18656 | -0.07 | -0.362 | – |
| Cad99C (Cadherin 99C) | DRSC15050 | -1.55 | -0.536 | – |
| Cad99C (Cadherin 99C) | DRSC16317 | -0.341 | – | – |
| hng1 (hinge1) | DRSC04555 | -0.94 | -1.73 | – |
| ppk25 (pickpocket 25) | DRSC04973 | -0.593 | 0.0299 | – |
| CG8043 | DRSC16368 | 3.65 | 4.37 | – |
| CG31279 | DRSC13158 | -1.09 | 0.433 | – |
| CG9117 | DRSC03141 | 0.786 | 0.206 | – |
| CG32318 + Klp61F + Psf1 | DRSC23255 | -0.344 | 0.912 | – |
| CG5011 | DRSC00039 | -0.356 | 0.498 | – |
| CG5011 | DRSC00674 | 0.179 | -2.52 | – |
| CG8564 | DRSC10997 | -0.146 | -0.888 | – |
| ihog (interference hedgehog) | DRSC03157 | -1.7 | 1.07 | – |
| Ir68a (Ionotropic receptor 68a) | DRSC10599 | -0.00856 | -0.121 | – |
| Cyp4e3 (Cytochrome P450 4e3) | DRSC03306 | 2.31 | -0.322 | – |
| Edg91 (Ecdysone-dependent gene 91) | DRSC16657 | -0.527 | 1.07 | – |
| Letm1 | DRSC04476 | 5.78 | 9.48 | – |
| sqd (squid) | DRSC15160 | -0.00177 | – | – |
| JMJD6 (Jumonji domain containing 6) | DRSC15787 | -1.03 | 0.159 | – |
| Ncc69 (sodium chloride cotransporter 69) | DRSC10412 | 0.713 | -0.764 | – |
| Ncc69 (sodium chloride cotransporter 69) | DRSC10413 | 1.76 | -1.46 | – |
| CG17141 | DRSC15178 | -0.071 | -0.179 | – |
| CG33340 | DRSC14615 | -0.558 | 0.406 | – |
| CG6583 | DRSC02972 | -0.0398 | -1.4 | – |
| GV1 | DRSC08228 | -0.466 | -0.00922 | – |
| Kua | DRSC02100 | -0.417 | – | – |
| Ugt36E1 (UDP-glycosyltransferase family 36 member E1) | DRSC02599 | -1.86 | -0.638 | – |
| xmas-1 (retired record) | DRSC20386 | 0.445 | 1.58 | – |
| MED26 (Mediator complex subunit 26) | DRSC17126 | -0.00559 | -0.646 | – |
| MED26 (Mediator complex subunit 26) | DRSC17147 | 0.392 | 3.27 | – |
| MED26 (Mediator complex subunit 26) | DRSC17148 | -1.49 | 3.37 | – |
| CG12672 | DRSC19482 | 0.912 | -1.57 | -0.416 |
| Idh3g | DRSC15699 | -0.704 | 0.28 | – |
| CG2127 | DRSC06821 | -0.0186 | 0.568 | – |
| Dph4 (Diphthamide biosynthesis 4) | DRSC12318 | -0.49 | -0.182 | – |
| Or10a (Odorant receptor 10a) | DRSC20264 | 0.00562 | -0.138 | -0.229 |
| CG14322 | DRSC14801 | -0.0483 | 2.19 | – |
| TfIIS (RNA polymerase II elongation factor) | DRSC03455 | 1 | -0.501 | – |
| CheA29a (Chemosensory protein A 29a) | DRSC21486 | -0.0662 | -1.04 | – |
| CG7131 | DRSC16203 | -0.806 | 0.0287 | – |
| mgl (Megalin) | DRSC17800 | -0.485 | -0.178 | 0.474 |
| mgl (Megalin) | DRSC17823 | -0.0201 | -1.44 | -0.854 |
| mgl (Megalin) | DRSC17859 | -1.78 | -2.46 | -0.13 |
| mgl (Megalin) | DRSC18004 | -0.256 | -0.91 | -0.477 |
| CG11586 | DRSC08203 | -2.38 | -0.0934 | 0.7 |
| mRpS6 (mitochondrial ribosomal protein S6) | DRSC08470 | -0.104 | 1.47 | – |
| frj (farjavit) | DRSC03250 | -0.927 | -1.23 | – |
| Spn (Spinophilin) | DRSC07986 | 0.159 | 0.248 | – |
| Spn (Spinophilin) | DRSC08490 | – | -1.56 | – |
| Spn (Spinophilin) | DRSC08491 | -0.436 | -2.29 | – |
| CG15107 | DRSC06534 | -1.89 | – | – |
| Or30a (Odorant receptor 30a) | DRSC03385 | -0.00317 | -0.0301 | – |
| CG2691 | DRSC19866 | 0.0636 | 1.28 | 0.743 |
| CG12746 | DRSC12218 | -2.3 | 3.52 | – |
| dgt5 (dim gamma-tubulin 5) | DRSC07280 | -0.261 | 1.64 | – |
| Taf8 (TBP-associated factor 8) | DRSC20363 | -0.403 | -2.53 | – |
| PIG-Q (Phosphatidylinositol glycan anchor biosynthesis class Q) | DRSC19138 | -2 | -0.0258 | – |
| Arpc3B (Actin-related protein 2/3 complex, subunit 3B) | DRSC20126 | 1.01 | 0.00488 | – |
| CG3168 | DRSC18287 | -0.381 | -0.541 | -0.648 |
| clu (clueless) | DRSC07181 | -0.792 | 1.31 | – |
| CG14455 | DRSC11712 | 0.107 | 0.00389 | – |
| shf (shifted) | DRSC18283 | -1.47 | -2.17 | – |
| CG4619 | DRSC02764 | -0.0179 | 0.794 | – |
| Lim1 (LIM homeobox 1) | DRSC17752 | 0.0908 | -0.803 | -0.0121 |
| Lim1 (LIM homeobox 1) | DRSC18677 | 0.647 | 0.0493 | -2.04 |

8 successive entries already listed, quoted:
| Gene | amplicon | droplet/nuclear area B-score, replicate 1 | droplet/nuclear area B-score, replicate 2 | droplet/nuclear area B-score, replicate 3 |
| --- | --- | --- | --- | --- |
| Idh3g | DRSC15699 | -0.704 | 0.28 | – |
| CG2127 | DRSC06821 | -0.0186 | 0.568 | – |
| Dph4 (Diphthamide biosynthesis 4) | DRSC12318 | -0.49 | -0.182 | – |
| Or10a (Odorant receptor 10a) | DRSC20264 | 0.00562 | -0.138 | -0.229 |
| CG14322 | DRSC14801 | -0.0483 | 2.19 | – |
| TfIIS (RNA polymerase II elongation factor) | DRSC03455 | 1 | -0.501 | – |
| CheA29a (Chemosensory protein A 29a) | DRSC21486 | -0.0662 | -1.04 | – |
| CG7131 | DRSC16203 | -0.806 | 0.0287 | – |
